Where a name gives a salt, the structure may show the parent alone. Read-outs that look alike come from different tables or passages of the source. Out of some 3,300 compounds screened, about 60 (2%) showed an effect of 50% or more. This is one part of the list.
Test system: HCoV-OC43
Parameters: species or system RD; HTS, protection from HCoV-OC43 induced cell death, luminescent cell viability (CellCounting-Lite 2.0), inhibition rate
Details: 24 h post infection, 1 h compound pre-incubation, 10 µM, inhibitor

SMILES | OC43 Inhibition rate (OC43 Inhibition rate, 24 h) [%] | OC43 Inhibition rate [%]
COc1ccc2cc3[n+](cc2c1OC)CCc1cc2c(cc1-3)OCO2 [Berberine (chloride)] | -0.3 | –
CO[C@H]1[C@H](O)[C@@H](O)[C@@H](O)[C@H](O)[C@@H]1O [D-Pinitol] | – | -0.3
Cc1cc(C)c(O)c(C)c1 [2,4,6-Trimethylphenol] | – | 0.8
O=c1cc(-c2ccc(O)cc2)oc2cc(O)c(O)c(O)c12 [Scutellarein] | – | 1
Oc1ccc([C@H]2Oc3cc(O)cc(O)c3C[C@@H]2O)cc1 [(+)-Afzelechin] | – | 4.5
O=C(O)[C@@H]1CCCCN1 [L-Pipecolic acid] | – | 6.6
O=C[C@H](O)[C@@H](O)[C@H](O)[C@H](O)COP(=O)(O)O [D-Glucose 6-phosphate (disodium salt)] | – | 4.5
C=C(CCC(C(=O)O)[C@H]1[C@H](O)C[C@@]2(C)C3=CC[C@H]4C(C)(C)[C@@H](OC(C)=O)CC[C@]4(C)C3=CC[C@]12C)C(C)C (stereo partly shown) [Dehydropachymic acid] | – | 4.1
NCCc1c[nH]cn1 [Histamine (phosphate)] | -6.6 | –
O=C(O)CC(O)CC(=O)O [3-Hydroxyglutaric acid] | – | 0.4
CC1=C(C/C=C(\C)CCC[C@H](C)CCC[C@H](C)CCCC(C)C)C(=O)c2ccccc2C1=O [Vitamin K1] | – | 8.3
O=C1CCc2ccccc2O1 [Dihydrocoumarin] | – | -0.6
CCOC(=O)CC(=O)O [3-Ethoxy-3-oxopropanoic acid] | – | -0.2
O=C(/C=C/c1ccccc1)c1ccccc1 [trans-Chalcone] | 39.6 | –
C[N+](C)(C)CCOP(=O)([O-])OC[C@H](O)CO [sn-Glycero-3-phosphocholine] | – | 0
CC1=CC(=O)[C@@H]2C[C@H]1C2(C)C [Verbenone] | – | -0.2
O=c1ccn([C@@H]2O[C@H](COP(=O)(O)O)[C@@H](O)[C@H]2O)c(=O)[nH]1 [Uridine 5'-monophosphate disodium salt] | -4.9 | –
O=C1O[C@H]([C@@H](O)CO)[C@H](O)[C@@H]1O [L-Gulono-1,4-lactone] | – | -0.9
COc1ccc(-c2coc3cc(O)c(OC)c(O)c3c2=O)cc1O [Iristectorigenin A] | – | 0.2
COc1cc(/C=C/C(=O)O)ccc1O [Ferulic acid] | 1.4 | –

As a working copy, part of the list above.
SMILES | OC43 Inhibition rate (OC43 Inhibition rate, 24 h) [%] | OC43 Inhibition rate [%]
CCOC(=O)CC(=O)O [3-Ethoxy-3-oxopropanoic acid] | – | -0.2
O=C(/C=C/c1ccccc1)c1ccccc1 [trans-Chalcone] | 39.6 | –
C[N+](C)(C)CCOP(=O)([O-])OC[C@H](O)CO [sn-Glycero-3-phosphocholine] | – | 0

Next part.

SMILES | OC43 Inhibition rate (OC43 Inhibition rate, 24 h) [%] | OC43 Inhibition rate [%]
CC(C)=CCC[C@@](C)(O)[C@H]1CC[C@]2(C)[C@@H]1[C@H](O)C[C@@H]1[C@@]3(C)CC[C@H](O[C@@H]4O[C@H](CO)[C@@H](O)[C@H](O)[C@H]4O[C@@H]4O[C@H](CO)[C@@H](O)[C@H](O)[C@H]4O[C@@H]4OC[C@@H](O)[C@H](O)[C@H]4O)C(C)(C)[C@@H]3CC[C@]12C [Notoginsenoside Ft1] | – | 0
OC[C@H]1O[C@@H](Oc2cc(O)cc(/C=C/c3ccc(O)c(O)c3)c2)[C@H](O)[C@@H](O)[C@@H]1O [Astringin] | – | -0.2
COC1=CC(=O)C=C(OC)C1=O [2,6-Dimethoxy-1,4-benzoquinone] | – | 0.1
N[C@H]1C(O)O[C@H](CO)[C@@H](O)[C@@H]1O (stereo partly shown) [Glucosamine (hydrochloride)] | 0.9 | –
COC(=O)c1ccco1 [Methyl 2-furoate] | – | -0.3
COc1cc2oc(=O)ccc2cc1O [Isoscopoletin] | – | 0.7
Cc1cc(O)c2c(c1)C(=O)c1cc(O)cc(O[C@@H]3O[C@H](CO)[C@@H](O)[C@H](O)[C@H]3O)c1C2=O [Emodin-8-glucoside] | – | -0.1
CC1(C)[C@@H](O[C@H]2O[C@H](C(=O)O)[C@@H](O)[C@H](O)[C@H]2O[C@@H]2O[C@H](C(=O)O)[C@@H](O)[C@H](O)[C@H]2O)CC[C@]2(C)[C@H]3C(=O)C=C4[C@@H]5C[C@@](C)(C(=O)O)CC[C@]5(C)CC[C@@]4(C)[C@]3(C)CC[C@@H]12 [Dipotassium glycyrrhizinate] | 5.1 | –
CCCCCCCCCCCCC/C=C/[C@@H](O)[C@@H](N)COP(=O)(O)O [Sphingosine-1-phosphate] | – | -1.2
C[C@H](CC[C@@H](O[C@@H]1O[C@H](CO[C@@H]2O[C@H](CO)[C@@H](O)[C@H](O)[C@H]2O)[C@@H](O)[C@H](O)[C@H]1O[C@@H]1O[C@H](CO)[C@@H](O)[C@H](O)[C@H]1O)C(C)(C)O)[C@H]1CC[C@@]2(C)[C@@H]3CC=C4[C@@H](CC[C@H](O[C@@H]5O[C@H](CO)[C@@H](O)[C@H](O)[C@H]5O)C4(C)C)[C@]3(C)[C@H](O)C[C@]12C [Siamenoside I] | – | -0.1
Cc1ccn(C)n1 [1,3-Dimethylpyrazole] | – | -0.1
CC(C)=CCC[C@](C)(O)[C@@H]1CC=C(C)CC1 [alpha-Bisabolol] | -0.2 | –
Nc1ncnc2c1ncn2[C@@H]1C[C@H](CO)[C@@H](O)[C@H]1O [Aristeromycin] | – | 53.9
C[C@@H]1CC[C@]2(C(=O)O)CC[C@]3(C)C(=CC[C@@H]4[C@@]5(C)C[C@@H](O)[C@H](O)C(C)(C)[C@@H]5CC[C@]43C)[C@@H]2[C@]1(C)O [Tormentic acid] | – | -9.7
C1CCN2C[C@H]3C[C@H](CN4CCCC[C@@H]34)[C@H]2C1 [(+)-Sparteine] | 6 | –
OC[C@H]1O[C@@](CO)(OC[C@@]2(OC[C@@]3(O[C@H]4O[C@H](CO)[C@@H](O)[C@H](O)[C@H]4O)O[C@H](CO)[C@@H](O)[C@@H]3O)O[C@H](CO)[C@@H](O)[C@@H]2O)[C@@H](O)[C@@H]1O [Nystose] | – | -0.8
COC(=O)/C=C/c1ccc(O)c(OC)c1 [Ferulic acid methyl ester] | – | -0.4
CCCCCCCCCCCCCCCCC(=O)O [Heptadecanoic acid] | – | -0.6
CCCCCCCCCC(C)=O [2-Undecanone] | – | -0.6
N=C(N)NCCC[C@H](N)C(=O)O [L-Arginine] | 2.7 | –
